{"source": "PubChem BioAssay AID1259308 | NCATS – 2017", "purpose": "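Knock-downs that increase output of a recombinant reporter protein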 (primary screen)", "system": "human HEK293 embryonic kidney cells stably expressing firefly luciferase (HEK-CMV-Luc2-Hygro)", "knock-down reagent": "single siRNA against human genes, 0.8 pmol siRNA per well", "timing": "72 h", "measured": "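Luciferase light (ONE-Glo) measured on one replicate plate set and viability (CellTiter-Glo) on the other, scaled to a negative control siRNA, with robust z-scores and luciferase per cell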", "scale": "total luciferase, z-score and total luciferase, % of control: higher = more reporter protein produced", "rule for the call": "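An siRNA counts as active if its total luciferase robust z-score exceeds 3; genes with two or more such siRNAs out of three were retested with fresh siRNAs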", "calls": "active = raised luciferase; inactive = no rise", "note": "Shown is a random part of about 59,000 reagents tested. Of all reagents, about 1,510 (2.6%) were called active. 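Calls use total luciferase alone and ignore viability, so some active siRNAs may act by altering cell number.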 Entries without a mark were called inactive. Reagents against one gene are numbered here. Not all columns of the deposit are shown. No sequences are given here."}
{"gene knocked down": "PAM16", "reagent no.": 1, "total luciferase, z-score": -2.32, "total luciferase, % of control": 35.7}
{"gene knocked down": "PAM16", "reagent no.": 2, "total luciferase, z-score": -0.708, "total luciferase, % of control": 67.8}
{"gene knocked down": "PAM16", "reagent no.": 3, "total luciferase, z-score": -1.23, "total luciferase, % of control": 57.3}
{"gene knocked down": "SEC23IP", "reagent no.": 1, "total luciferase, z-score": 0.598, "total luciferase, % of control": 93.8}
{"gene knocked down": "SEC23IP", "reagent no.": 2, "total luciferase, z-score": -1.43, "total luciferase, % of control": 53.5}
{"gene knocked down": "SEC23IP", "reagent no.": 3, "total luciferase, z-score": -0.731, "total luciferase, % of control": 67.4}
{"gene knocked down": "SLC50A1", "reagent no.": 1, "total luciferase, z-score": -1.39, "total luciferase, % of control": 54.2}
{"gene knocked down": "SLC50A1", "reagent no.": 2, "total luciferase, z-score": -1.23, "total luciferase, % of control": 57.5}
{"gene knocked down": "SLC50A1", "reagent no.": 3, "total luciferase, z-score": -0.633, "total luciferase, % of control": 69.3}
{"gene knocked down": "RBMXL2", "reagent no.": 1, "total luciferase, z-score": -0.0522, "total luciferase, % of control": 80.8}
{"gene knocked down": "RBMXL2", "reagent no.": 2, "total luciferase, z-score": -1.11, "total luciferase, % of control": 59.8}
{"gene knocked down": "RBMXL2", "reagent no.": 3, "total luciferase, z-score": 1.92, "total luciferase, % of control": 120}
{"gene knocked down": "MTFR1", "reagent no.": 1, "total luciferase, z-score": -0.279, "total luciferase, % of control": 76.3}
{"gene knocked down": "MTFR1", "reagent no.": 2, "total luciferase, z-score": -1.23, "total luciferase, % of control": 57.4}
{"gene knocked down": "MTFR1", "reagent no.": 3, "total luciferase, z-score": -0.354, "total luciferase, % of control": 74.8}
{"gene knocked down": "ANKRD54", "reagent no.": 1, "total luciferase, z-score": 2.02, "total luciferase, % of control": 122}
{"gene knocked down": "ANKRD54", "reagent no.": 2, "total luciferase, z-score": 0.0472, "total luciferase, % of control": 82.8}
{"gene knocked down": "ANKRD54", "reagent no.": 3, "total luciferase, z-score": 1.24, "total luciferase, % of control": 107}
{"gene knocked down": "GHR", "reagent no.": 1, "total luciferase, z-score": 0.256, "total luciferase, % of control": 87}
{"gene knocked down": "GHR", "reagent no.": 2, "total luciferase, z-score": 0.137, "total luciferase, % of control": 84.6}
{"gene knocked down": "GHR", "reagent no.": 3, "total luciferase, z-score": 1.31, "total luciferase, % of control": 108}
{"gene knocked down": "SYNE1", "reagent no.": 1, "total luciferase, z-score": -1.87, "total luciferase, % of control": 44.7}
{"gene knocked down": "SYNE1", "reagent no.": 2, "total luciferase, z-score": 0.385, "total luciferase, % of control": 89.5}
{"gene knocked down": "SYNE1", "reagent no.": 3, "total luciferase, z-score": -0.086, "total luciferase, % of control": 80.2}
{"gene knocked down": "TPP2", "reagent no.": 1, "total luciferase, z-score": 0.798, "total luciferase, % of control": 97.8}
{"gene knocked down": "TPP2", "reagent no.": 2, "total luciferase, z-score": -0.0733, "total luciferase, % of control": 80.4}
{"gene knocked down": "TPP2", "reagent no.": 3, "total luciferase, z-score": -1.61, "total luciferase, % of control": 49.9}
{"gene knocked down": "HS6ST1", "reagent no.": 1, "total luciferase, z-score": 0.829, "total luciferase, % of control": 98.4}
{"gene knocked down": "HS6ST1", "reagent no.": 2, "total luciferase, z-score": 1.26, "total luciferase, % of control": 107}
{"gene knocked down": "HS6ST1", "reagent no.": 3, "total luciferase, z-score": 0.339, "total luciferase, % of control": 88.6}
{"gene knocked down": "LRMDA", "reagent no.": 1, "total luciferase, z-score": 0.711, "total luciferase, % of control": 96}
{"gene knocked down": "LRMDA", "reagent no.": 2, "total luciferase, z-score": 0.578, "total luciferase, % of control": 93.4}
{"gene knocked down": "LRMDA", "reagent no.": 3, "total luciferase, z-score": 0.711, "total luciferase, % of control": 96}
{"gene knocked down": "PCDHA3", "reagent no.": 1, "total luciferase, z-score": -0.267, "total luciferase, % of control": 76.6}
{"gene knocked down": "PCDHA3", "reagent no.": 2, "total luciferase, z-score": -0.154, "total luciferase, % of control": 78.8}
{"gene knocked down": "PCDHA3", "reagent no.": 3, "total luciferase, z-score": -1.52, "total luciferase, % of control": 51.6}
{"gene knocked down": "RPS28P3", "reagent no.": 1, "total luciferase, z-score": 1.21, "total luciferase, % of control": 106}
{"gene knocked down": "RPS28P3", "reagent no.": 2, "total luciferase, z-score": -0.883, "total luciferase, % of control": 64.3}
{"gene knocked down": "RPS28P3", "reagent no.": 3, "total luciferase, z-score": -0.249, "total luciferase, % of control": 76.9}
{"gene knocked down": "ZBTB24", "reagent no.": 1, "total luciferase, z-score": -2.41, "total luciferase, % of control": 34}
{"gene knocked down": "ZBTB24", "reagent no.": 2, "total luciferase, z-score": -0.321, "total luciferase, % of control": 75.5}
{"gene knocked down": "ZBTB24", "reagent no.": 3, "total luciferase, z-score": 1.99, "total luciferase, % of control": 122}

An excerpt from above, reduced to “total luciferase, z-score”:
PCDHA3 #2 = -0.154
PCDHA3 #3 = -1.52
RPS28P3 #1 = 1.21
